In patent US4396623A, “Carbocyclic analogs of uracil nucleosides as antiviral agents” (priority 1981, dated 1983):
Values joined by “and” are separate entries in the source; they are usually repeats but may differ in a detail not shown here. Equal entries are not always repeated. The name of at least one read-out is uncertain.

Tested on: herpes simplex virus, Type 1
Test: Antiviral test against herpes simplex virus, Type 1, growing in rabbit kidney cells (Virus Rating, MIC50)
Assay type: cell-based
Parameters: key: Ehrlich weighted score; 0.5-0.9 marginal-moderate, ≥1 definite activity
Conditions: Table 3 comparison
Experimental: Carbocyclic analogs of 5-substituted-2'-deoxyuridines were tested for antiviral activity against viruses that replicate in mammalian cells growing in cell culture. The Virus Rating (VR) is a weighted measurement of antiviral activity determined by the method of Ehrlich et al, Annals of the New York Academy of Science, volume 130, pages 5-16, 1965. In tests carried out by this method, a VR of 0.5-0.9 indicates marginal to moderate antiviral activity and a VR equal to or greater than 1 indicates definite antiviral activity. The higher the value of VR, the greater is the antiviral activity. The MIC50 (minimum inhibitory concentration, 50%) is the concentration of a test compound required for 50% inhibition of virus-induced cytopathogenic effect.
The results of antiviral tests, performed as described in Example 7, of 5-iodo-2'-deoxyuridine (IdUrd), the carbocyclic analog (Example 3) of 5-iodo-2'-deoxyuridine, 9-β-D-arabinofuranosyladenine (Ara-A), the carbocyclic analog (Example 2) of 5-bromo-2'-deoxyuridine, the carbocyclic analog (Example 5) of 5-(methylamino)-2'-deoxyuridine and the carbocyclic analog of thymidine are summarized in Table 3.

O=c1[nH]c(=O)n([C@@H]2C[C@H](CO)[C@@H](O)C2)cc1I (relative stereo) [Example 3, (±)-1-[(1α,3β,4α)-3-Hydroxy-4-(hydroxymethyl)cyclopentyl]-5-iodo-2,4(1H,3H)-pyrimidinedione]
Virus Rating (VR): 7.9 and 7.4
